Assay type in all cases: cell-based
For experiment [1], the system named is γ-globin gene promoter. As to the kind of experiment: Dual luciferase reporter assay (μLCRβprRlucAγprFluc cassette) in GM979 cells. Particulars: Ambroxol at 1 μM, Desloratadine at 1 μM, Resveratrol at 10 μM, Benserazide at 0.03 μM (or a range of 30 nM-5 μM), MS-275 at 5 μM, NSC-95397 at 1 μM; versus sodium Butyrate at 2000 μM. From the text:
Cell-based screen for γ-globin inducing compounds in GM979 cells (Skarpidi, et al. Blood 2000; 96:321-326). Mini-gene construct integrated into GM979 cell genome. The readout is Firefly/Renilla luciferase ratio, and is designed to identify only strong inducers of the γ-globin promoter, and specificity for the γ- vs. the […]γ-globin gene. This second assay confirmed 12/15 candidates.
This assay is […], and consists of a dual-luciferase reporter construct containing the LCR and the […] luciferase and the Aγ-globin promoter linked to firefly luciferase (μLCRβprRlucAγprFluc cassette), stably-transfected into GM979 cells. The orientation of the promoters and μLCR allowed detection only of strong, specific inducers of the γ-globin gene promoter. This assay is also been predictive of in vivo HbF-inducing activity.
The γ-globin-specificity of hits was determined in a secondary assay employing a stably-transfected dual-luciferase reporter construct containing the LCR and the β-globin promoter linked to renilla luciferase and the Aγ-globin promoter linked to firefly luciferase (μLCRβprRlucAγprFluc cassette) (FIG. 2B).

In experiment [2] the test system is γ-globin mRNA. Description: γ-globin mRNA in cultured primary human erythroid progenitors (BFU-e), real-time PCR. As to conditions: primary erythroid progenitors in vitro. The procedure: Erythroid progenitors were cultured from cord blood CD34+ cells. […] Each compound was tested in three different cultures. […] On day 14, RNA was extracted from cultured erythroid cells, and relative quantification PCR was performed. Briefly, cDNA was generated from equal amounts of total RNA extracted using The PerfectPure RNA Purification Kit (5 Prime Inc Gaithersburg, Md.). Real-time PCR was performed using an ABI 7500 Real-Time PCR system (Applied Biosystems, Foster City, Calif.). Levels of globin mRNA were calculated by the ΔΔCt method. […] GAPDH levels were used for standardization. Western blotting Nuclear extract of K562 cells and 14-day-old BFU-e were analyzed by electrophoresis using 5-24% gradient SDS-polyacrylamide mini-gels (BIORAD Laboratories. Hercules Calif.). Proteins in the gels were transferred to Immobilon-P membranes. Blots were then incubated with BCL11A polyclonal (Novus Biologicals, Littleton Co) or mouse monoclonal (Santa Cruz Biotechnology, Santa Cruz Calif.) antibodies, after washing blots were incubated with anti-rabbit IgG-horseradish peroxidase secondary antibody (ECL, Little Chalfont Buckinghamshire UK). BCL11A bands were detected on the X-ray film using Western Lightning Reagents (Perking Elmer Inc, Waltham, Mass.).
For orientation: Quantitative PCR measures a nucleic acid by following its amplification.

Experiment [3] has as its system γ-globin mRNA. Description: γ-globin mRNA gene expression in K562 cells. As to conditions: FIG. 5, K562 cells; tested Desloratadine 10 μM-100 μM, Resveratrol 5 μM-30 μM, NSC 1 μM-50 μM.

The structures appear in SMILES notation.

With `Clc1ccc2c(c1)CCc1cccnc1C2=C1CCNCC1` [Desloratadine, 8-Chloro-6,11-dihydro-11-(4-piperidinylidene)-5H-benzo[5,6]cyclohepta[1,2-b]pyridine], the “activity compared with sodium Butyrate” value in experiment [1] was “significantly more active”. In addition, in experiment [2] (lower end of the range 5 nM to 3 μM), the “lowest concentration with fetal hemoglobin (HbF) inducing activity” value stood at 5 nM. Further, in experiment [2] (range 5 nM to 3 μM), the “upper end of the concentration range with fetal hemoglobin (HbF) inducing activity” value amounted to 3 µM. In addition, in experiment [3], the “concentration giving the most γ-globin mRNA expression” value was found to be 50 µM.
